From patent US20080089886A1
Results are given in words; binding and its absence hold for the method and conditions named. Some results given as binding are weak or reduced against the parent protein; the word gives no strength.

How the values were obtained:
[1] = target: T1, recombinant C35 protein generated and purified from E. coli (human) (UniProt Q9BRT3); assay: ELISA and Western blot
T1 sequence: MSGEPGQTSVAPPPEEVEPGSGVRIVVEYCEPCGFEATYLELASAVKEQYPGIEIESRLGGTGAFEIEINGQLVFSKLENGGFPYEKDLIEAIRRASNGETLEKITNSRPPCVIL

[2] = target: T1, recombinant C35 protein generated and purified from E. coli (human); assay: ELISA, hybridoma supernatant on C35-coated plates
[3] = target: T1, recombinant C35 protein generated and purified from E. coli (human); assay: Western blot with hybridoma supernatant (legend of FIG. 20)
[4] = target: T1, recombinant C35 protein generated and purified from E. coli (human); assay: immunohistochemistry with soluble C35 protein as competitor (data not shown)
[5] = target: T1, recombinant C35 protein generated and purified from E. coli (human); assay: Western blot, 100 ng purified recombinant C35 per lane, β-galactosidase as control lane
[6] = target: T1, recombinant C35 protein generated and purified from E. coli (human); assay: ELISA, plate coated with E. coli-derived C35 protein, hybridoma supernatant, HRP anti-mouse antibody, OPD
[7] = target: T1, recombinant C35 protein generated and purified from E. coli (human); assay: Western blot, 100 ng purified recombinant C35 per lane, 18% SDS-PAGE, PVDF, hybridoma supernatant, goat anti-mouse IgG-HRP, ECL
[8] = target: T2, C35 protein, recombinant (bacterially synthesized) (human) (UniProt Q9BRT3); assay: ELISA screen of hybridoma supernatants on plates coated with C35 protein
T2 sequence: T1 sequence

[9] = target: T2, C35 protein, recombinant (bacterially synthesized) (human); assay: Western blot of recombinant C35 protein

Measured: binding

B1: 1F2 monoclonal antibody (antibody, mouse IgG1, V domains shown)
VH: DVQLQESGPGLVKPSQSLSLTCSVTGYSITSGYFWNWIRQFPGNKLEWMGYISYDGSNNSNPSLKNRISFTRDTSKNQFFLKFNSVTTDDSAAYYCTRGTTGFAYWGQGTLVTVSA
VL: QIVLTQSPAIMSASPGEKVTISCSASSSVSYMNWYQQKPGSSPKPWIYHTSNLASGVPARFSGSGSGTSYSLTISSMEAEDAATYYCQQYHSYPPTFGGGTKLEIK
not listed: [8] | [9]
binds: all other assays above

B2: 1E11 hybridoma antibody (antibody, mouse IgG1, V domains shown)
VH: B1 VH
VL: B1 VL
binds: [2] | [6]

B3: 3E10 hybridoma antibody (antibody, mouse IgG1, V domains shown)
VH: EVQLQESGPSLVKPSQTLSLTCSVTGDSITSGYWNWIRKFPGNKLEYVGYISYSGGTYYNPSLKSRISITRDTSKNHYYLQLNSVTTEDTATYYCARGAYYGGAFFPYFDVWGAGTTVTVSS
VL: DVQITQSPSFLAASPGETITINCRASKYISKHLVWYQEKPGETKKLLIYSGSTLQSGLPSRFSGSGSGTDFTLTISSLEPEDFAMYYCQQHNEYPLTFGAGTKLELK
not listed: [4] | [8] | [9]
binds: all other assays above

B4: murine monoclonal antibody 1E11 (antibody, IgG1, V domains shown)
VH: B1 VH
VL: B1 VL
binds: [8]

B5: murine monoclonal antibody 1F2 (antibody, IgG1, V domains shown)
VH: B1 VH
VL: B1 VL
binds: [9] | [8]

B6: murine monoclonal antibody 3E10 (antibody, IgG1, V domains shown)
VH: B3 VH
VL: B3 VL
binds: [9] | [8]
